The series addresses T1, RamB-His (UniProt Q8NTD8).
T1 sequence (looked up, limits assumed): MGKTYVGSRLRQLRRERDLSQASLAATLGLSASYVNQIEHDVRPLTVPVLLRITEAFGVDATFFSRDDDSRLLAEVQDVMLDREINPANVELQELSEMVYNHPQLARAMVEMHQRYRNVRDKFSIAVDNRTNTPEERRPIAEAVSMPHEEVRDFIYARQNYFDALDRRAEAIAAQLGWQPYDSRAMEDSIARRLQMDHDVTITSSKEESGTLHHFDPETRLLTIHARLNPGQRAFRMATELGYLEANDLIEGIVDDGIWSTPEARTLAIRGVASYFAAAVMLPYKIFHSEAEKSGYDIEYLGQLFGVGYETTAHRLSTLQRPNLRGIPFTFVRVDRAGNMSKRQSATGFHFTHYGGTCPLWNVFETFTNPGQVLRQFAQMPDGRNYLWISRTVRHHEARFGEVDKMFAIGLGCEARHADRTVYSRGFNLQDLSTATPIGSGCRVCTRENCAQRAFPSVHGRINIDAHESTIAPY
Kind of series: EMSA. The note with it: EMSA: 100 mM Tris/HCl pH 7.5, 20% glycerol, 100 mM KCl, 20 mM MgCl2, 1 mM EDTA, 30 min room temperature, DNA 5-61 nM, pull-down bead equilibration: 20 mM Tris-HCl pH 7.5, recombinant protein, protein details: C-terminal His, probe letters rebuilt from the primers and the ….

The exact form of at least one protein or probe is not confirmed. Weaker means in comparison with the reference protein, sequence or condition of that experiment. Tags and fusion partners may be left off the protein sequences shown.

With “CCCCTCGAGTAAAAAAGAGACTTGCTAAAAACCTGTGAGAATAATAAGAATCGGTGATTTTCGTTCCGCAGGGGTCGAAAATTGCCGATTTTTGTGATTAGAGTCTCCAAATGTTACGAGTGAGATGTGGGTAGTGGCAGAATTTGCCGAACGATAGCCCAGAGTTCATAAGTTGTTAACCAAATTAGCCTGAGTTAGTCATTTCAAGGTCTTAGGTTTTTAAGTCGTGAGCAATCCGGAGGGAAACTAGCCCGCCTACAGGATCTGCTCAGACGATGTCTTCACTTAAACCGGAAAGGCTTCCCCGTGAACCTCACTCTTAAGCGCTCCATCGCCCTTGTGGGCGCAGTTACTGCAGGCTCCTTCGCTCTTGTAGCTTGCTCCGACTCCAATGAGTCTGATTCCACCTCCTCATCTGCAGCTTCCACCGGTTCTTCCGATGCTGCATCCATTGAGGGCCTTTCCGGTGTTACCGGTCAGCTCGTTGCTGAAGGTGCATCTTCCCAGCAGTCCGCATCTAGACG (double strand) [RF0 (full-length pstS promoter)]”, the binding result (100-400-fold molar excess RamB) is “binds”.
For the sequence “CGTCTAGATGCGGACTGCTGGGAAGATGCACCTTCAGCAACGAGCTGACCGGTAACACCGGAAAGGCCCTCAATGGATGCAGCATCGGAAGAACCGGTGGAAGCTGCAGATGAGGAGGTGGAATCAGACTCATTGGAGTCGGAGCAAGCTACAAGAGCGAAGGAGCCTGCAGTAACTGCGCCCACAAGGGCGATGGAGCGCTTAAGAGTGAGGTTCACGGGGAAGCCTTTCCGGTTTAAGTGAAGACATCGTCTGAGCAGATCCTGTAGGCGGGCTAGTTTCCCTCCGGATTGCTCACGACTTAAAAACCTAAGACCTTGAAATGACTAACTCAGGCTCGAGGGG (double strand) [R2F0]”, the binding result (100-fold molar excess RamB) is listed as “binds more weakly”.
In the case of “CGTCTAGATGCGGACTGCTGGGAAGATGCACCTTCAGCAACGAGCTGACCGGTAACACCGGAAAGGCCCTCAATGGATGCAGCATCGGAAGAACCGGTGGAAGCTGCAGATGAGGAGGTGGAATCAGACTCATTGGAGTCGGAGCAAGCTACAAGAGCGAAGGAGCCTGCAGTAACTGCGCCCACAAGGGCGATGGAGCGCTTAAGAGTGAGGTTCACGGGGAAGCCTTTCCGGTTTAAGTGAAGACATCGTCTGAGCAGATCCTGTAGGCGGGCTAGTTTCCCTCCGGATTGCTCACGACTTAAAAACCTAAGACCTTGAAATGACTAACTCAGGCTAATTTGGTTAACAACTTATGAACTCTGGGCTATCGTTCGGCAAATTCTGCCACTACCCACATCTCACTCGTAACATTTGGAGACTCTAATCACAAAAATCGGCAATTTTCGACCCCTGCGGAACGAAAATCACCGATTCTTACTCGAGGGG (double strand) [R0F0]”, the binding result (100-fold molar excess RamB) is “binds”.

Values taken from article PMC4448153.
